Laboratory results taken from patent US10864285B2, “Methods for the diagnosis and treatment of Sjögren's syndrome” (The U.S.A., as represented by the Secretary, Department of …, priority 2012, dated 2020).

System: salivary glands of mice
Assay: Salivary gland morphology (H&E, trichrome) and AQP5 immunofluorescence
Format: in vivo, mouse
Settings: AAV5BMP6 transduced mice vs controls

B1: BMP6: A member of the TGF-β superfamily of growth factors; added to cultured cells at 6 ng/ml (protein, UniProt P22004 375-513, looked up)
Bone morphogenetic protein 6: SASSRRRQQSRNRSTQSQDVARVSSASDYNSSELKTACRKHELYVSFQDLGWQDWIIAPKGYAANYCDGECSFPLNAHMNATNHAIVQTLVHLMNPEYVPKPCCAPTKLNAISVLYFDDNSNVILKKYRNMVVRACGCH
Staining for the acinar specific protein AQP5: less well defined on the apical surfaces
